Data taken from patent US20030166531A1, “Methods for modulating an immune response by modulating the interaction between CTLA4 and PP2A” (Genetics Institute, Inc., priority 2001, published 2003).
No constants are given. Whether binding was seen depends on the method and setting. For some assays here: In cells and extracts the contact can be indirect. Some binding calls cover weakened binding; strength is not graded here.

Chains of the proteins cited; added tags and fusions are not shown. Residues count along the entry.
UniProt P10747, residues 19-220: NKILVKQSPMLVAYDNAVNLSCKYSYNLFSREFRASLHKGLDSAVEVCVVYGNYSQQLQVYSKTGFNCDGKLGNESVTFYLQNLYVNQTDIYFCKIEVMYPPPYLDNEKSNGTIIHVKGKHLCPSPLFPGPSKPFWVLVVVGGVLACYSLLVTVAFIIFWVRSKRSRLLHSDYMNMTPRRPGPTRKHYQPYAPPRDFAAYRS
UniProt P16410, residues 36-223: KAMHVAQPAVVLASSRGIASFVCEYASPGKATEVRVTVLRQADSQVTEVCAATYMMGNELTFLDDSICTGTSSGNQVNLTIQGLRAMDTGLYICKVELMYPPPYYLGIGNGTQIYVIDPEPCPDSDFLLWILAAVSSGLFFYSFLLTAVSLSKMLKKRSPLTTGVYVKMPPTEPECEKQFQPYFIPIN
UniProt P30153, residues 2-589: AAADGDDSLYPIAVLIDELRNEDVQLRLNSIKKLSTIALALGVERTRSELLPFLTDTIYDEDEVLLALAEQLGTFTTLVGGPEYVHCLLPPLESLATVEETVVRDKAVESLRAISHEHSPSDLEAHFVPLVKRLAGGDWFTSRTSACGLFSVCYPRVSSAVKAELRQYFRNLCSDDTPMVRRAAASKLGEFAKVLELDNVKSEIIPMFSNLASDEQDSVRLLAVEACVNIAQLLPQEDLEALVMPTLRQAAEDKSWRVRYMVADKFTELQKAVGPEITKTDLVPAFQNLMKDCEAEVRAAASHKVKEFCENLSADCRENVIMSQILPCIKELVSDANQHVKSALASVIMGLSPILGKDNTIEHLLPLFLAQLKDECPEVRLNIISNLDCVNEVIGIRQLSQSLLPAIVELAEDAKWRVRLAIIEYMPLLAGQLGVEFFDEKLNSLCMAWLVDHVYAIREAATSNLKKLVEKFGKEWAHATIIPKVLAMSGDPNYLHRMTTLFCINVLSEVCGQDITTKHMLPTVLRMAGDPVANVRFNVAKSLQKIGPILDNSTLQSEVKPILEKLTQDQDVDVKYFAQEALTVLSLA

Legend:
[1] = biological target: CD28 of parental Jurkat cells (E6.1 cells) (UniProt P10747); assay: pull-down of CD28 with B7.2Ig from parental Jurkat (E6.1) lysates, blot with anti-PP2AA
[2] = biological target: wild type CTLA4 expressed in doxycycline-induced transfected Jurkat T cells (UniProt P16410); assay: immunoprecipitation of PP2AA from transfected Jurkat cell lysates, blot for CTLA4
[3] = biological target: wild type CTLA4 expressed in doxycycline-induced transfected Jurkat T cells (UniProt P16410); assay: immunoprecipitation of PP2AA from Jurkat lysates normalized for total CTLA4, blot for CTLA4
[4] = biological target: wild type CTLA4 expressed in doxycycline-induced transfected Jurkat T cells (UniProt P16410); assay: co-immunoprecipitation from Jurkat cells, time course after SEE and APCs
[5] = biological target: wild type CTLA4 expressed in doxycycline-induced transfected Jurkat T cells (UniProt P16410); assay: co-immunoprecipitation from Jurkat cell lysates

Measured: binding

endogenous PP2AA (65 kD regulatory subunit of PP2A) of Jurkat T cells (from UniProt P30153 2-589)
binds: all assays above
